Measurements reported in doi:10.64898/2025.12.19.695442.
No constants are given. Whether binding was seen depends on the method and setting. Tags and fused reporters may be left off the sequences shown.

By UniProt entry, the sequences of proteins in these tests, tags left out.
UniProt O94972: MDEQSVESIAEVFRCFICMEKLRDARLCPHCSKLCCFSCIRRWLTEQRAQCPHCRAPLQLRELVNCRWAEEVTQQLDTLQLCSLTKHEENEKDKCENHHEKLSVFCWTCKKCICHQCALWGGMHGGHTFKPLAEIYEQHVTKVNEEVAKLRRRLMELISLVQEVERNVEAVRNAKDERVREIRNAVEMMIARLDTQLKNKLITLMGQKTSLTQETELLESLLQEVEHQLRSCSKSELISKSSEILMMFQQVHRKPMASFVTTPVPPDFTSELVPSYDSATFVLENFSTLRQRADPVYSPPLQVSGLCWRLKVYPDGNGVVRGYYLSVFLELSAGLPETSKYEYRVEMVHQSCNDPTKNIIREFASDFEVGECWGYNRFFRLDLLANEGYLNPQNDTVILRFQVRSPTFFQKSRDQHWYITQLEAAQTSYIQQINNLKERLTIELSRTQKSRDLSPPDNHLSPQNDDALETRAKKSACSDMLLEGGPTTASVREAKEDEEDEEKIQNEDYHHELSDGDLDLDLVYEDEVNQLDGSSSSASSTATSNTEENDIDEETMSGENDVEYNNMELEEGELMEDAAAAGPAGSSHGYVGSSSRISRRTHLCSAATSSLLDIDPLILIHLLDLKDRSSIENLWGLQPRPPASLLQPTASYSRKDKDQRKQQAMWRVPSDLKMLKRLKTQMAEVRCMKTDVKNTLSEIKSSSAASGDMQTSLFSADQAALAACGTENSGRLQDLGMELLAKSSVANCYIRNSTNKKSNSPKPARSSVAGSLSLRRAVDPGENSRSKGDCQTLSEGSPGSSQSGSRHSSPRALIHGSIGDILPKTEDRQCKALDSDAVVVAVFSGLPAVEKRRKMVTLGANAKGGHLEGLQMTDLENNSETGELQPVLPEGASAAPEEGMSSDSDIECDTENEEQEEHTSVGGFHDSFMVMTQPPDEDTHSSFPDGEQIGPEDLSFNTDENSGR

Biological target: TRIM37 (UniProt O94972)
Assay: pull-down; TRIM37 (1 ug) held on Protein A Dynabeads conjugated with TRIM37 antibody; purified GFP-tagged Cep192 fragments (1 uM), 1 hr at 37°C; washes 150 mM KCl, last wash 500 mM KCl; Western blot against GFP; both purified

B1: GFP-tagged Cep192 C-terminal truncation lacking ASH8 (domain or fragment, UniProt Q8TEP8-3 2070-2437)
chain: REFLQPSSKASLESTSDLGASGKHGGNVSLDVLPVKGPQGSPLLSRAARPPLDQLASEEPWTVLPEHLILVAPSPCDMAKTGRFQIVNNSVRLLRFELCWPAHCLTVTPQHGCVAPESKLQILVSPNSSLSTKQSMFPWSGLIYIHCDDGQKKIVKVQIREDLTQVELLTRLTSKPFGILSPVSEPSVSHLVKPMTKPPSTKVEIRNKSITFPTTEPGETSESCLELENHGTTDVKWHLSSLAPPYVKGVDESGDVFRATYAAFRCSPISGLLESHGIQKVSITFLPRGRGDYAQFWDVECHPLKEPHMKHTLRFQLSGQSIEAENEPENACLSTDSLIKIDHLVKPRRQAVSEASARIPEQLDVTAR
Q: Which binding does the source give for B1 here?
A: The binding was “no binding (tested: 1 μM Cep192 construct, 1 μg TRIM37)”.
